From paper PMC10063565 come the findings set out here.

This assay concerns the target CTF derived from full-length 3FLAG-PC1-3HA. Put plainly: affinity purification with mass spectrometry; crude mitochondrial fraction (mitochondria and MAMs) of Pkd1F/H-BAC vs WT mouse kidneys, crosslinked with 3 mM DTSSP, resuspended in PBS + 1% SDS, anti-HA magnetic beads, washes in TENT buffer, LC-MS/MS.

No constants are given. Whether binding was seen depends on the method and setting. In cells and extracts the contact can be indirect. A yes stands for co-enrichment or nearness to the bait. Other partners may have been found. Where a sequence is shown, tags or fusion partners need not be part of it.

B1: Nicotinamide Nucleotide Transhydrogenase (NNT) (enzyme, UniProt Q61941 44-1086)
chain: CKSPVKPGIPYKQLTVGVPKEIFQNEKRVALSPAGVQALVKQGFNVVVESGAGEASKFPDDLYRAAGAQIQGMKEVLASDLVVKVRAPMVNPTLGAHEADFLKPSGTLISFIYPAQNPDLLNKLSERKTTVLAMDQVPRVTIAQGYDALSSMANISGYKAVVLAANHFGRFFTGQITAAGKVPPAKILIVGGGVAGLASAGAAKSMGAVVRGFDTRAAALEQFKSLGAEPLEVDLKESGEGQGGYAKEMSKEFIEAEMKLFAQQCKEVDILISTALIPGKKAPVLFSKEMIESMKEGSVVVDLAAEAGGNFETTKPGELYVHKGITHIGYTDLPSRMATQASTLYSNNITKLLKAISPDKDNFHFEVKDDFDFGTMSHVIRGTVVMKDGKVIFPAPTPKNIPEEAPVKPKTVAELEAEKAGTVSMYTKTLTTASVYSAGLTGMLGLGIVAPNVAFSQMVTTFGLAGIIGYHTVWGVTPALHSPLMSVTNAISGLTAVGGLALMGGHFYPSTTSQSLAALATFISSVNIAGGFLVTQRMLDMFKRPTDPPEYNYLYLLPGGTFVGGYLAALYGGYNIEEIMYLGSGLCCVGALGGLSTQGTARLGNALGMIGVAGGLAATLGGLKPDPQLLAQMSGAMAMGGTIGLTIAKRIQISDLPQLVAAFHSLVGLAAVLTCMAEYIVEYPHFAMDATSNFTKIVAYLGTYIGGVTFSGSLVAYGKLQGILKSAPLLLPGRHALNAGLLAASVGGIIPFMADPSFTTGITCLGSVSGLSTLMGVTLTAAIGGADMPVVITVLNSYSGWALCAEGFLLNNNLLTIVGALIGSSGAILSYIMCVAMNRSLANVILGGYGTTSTAGGKPMEISGTHTEINLDNAVEMIREANSIVITPGYGLCAAKAQYPIADLVKMLTEQGKKVRFGIHPVAGRMPGQLNVLLAEAGVPYDIVLEMDEINSDFPDTDLVLVIGANDTVNSAAQEDPNSIIAGMPVLEVWKSKQVIVMKRSLGVGYAAVDNPIFYKPNTAMLLGDAKKTCDALQAKVRESYQK
On to B1, for which the binding entry was “binds”.

B2: glucosidase II α-subunit (Ganab) (enzyme, UniProt Q8BHN3 33-944)
chain: VDRSNFKTCDESSFCKRQRSIRPGLSPYRALLDTLQLGPDALTVHLIHEVTKVLLVLELQGLQKNMTRIRIDELEPRRPRYRVPDVLVADPPTARLSVSGRDDNSVELTVAEGPYKIILTAQPFRLDLLEDRSLLLSVNARGLMAFEHQRAPRVPQESKDPAEGNGAQPEATPGDGDKPEETQEKAEKDEPGAWEETFKTHSDSKPYGPTSVGLDFSLPGMEHVYGIPEHADSLRLKVTEGGEPYRLYNLDVFQYELNNPMALYGSVPVLLAHSFHRDLGIFWLNAAETWVDISSNTAGKTLFGKMLDYLQGSGETPQTDIRWMSESGIIDVFLMLGPSVFDVFRQYASLTGTQALPPLFSLGYHQSRWNYRDEADVLEVDQGFDDHNMPCDVIWLDIEHADGKRYFTWDPTRFPQPLNMLEHLASKRRKLVAIVDPHIKVDSGYRVHEELRNHGLYVKTRDGSDYEGWCWPGSASYPDFTNPRMRAWWSNMFSFDNYEGSAPNLYVWNDMNEPSVFNGPEVTMLKDAVHYGGWEHRDIHNIYGLYVHMATADGLIQRSGGIERPFVLSRAFFSGSQRFGAVWTGDNTAEWDHLKISIPMCLSLALVGLSFCGADVGGFFKNPEPELLVRWYQMGAYQPFFRAHAHLDTGRREPWLLASQYQDAIRDALFQRYSLLPFWYTLFYQAHKEGFPVMRPLWVQYPEDMSTFSIEDQFMLGDALLIHPVSDAGAHGVQVYLPGQEEVWYDIQSYQKHHGPQTLYLPVTLSSIPVFQRGGTIVPRWMRVRRSSDCMKDDPITLFVALSPQGTAQGELFLDDGHTFNYQTRHEFLLRRFSFSGSTLVSSSADPKGHLETPIWIERVVIMGAGKPAAVVLQTKGSPESRLSFQHDPETSVLILRKPGVSVASDWSIHLR
For B2, the binding entry is reported as “binds”.
